A short description of this data set: EPR spectra of flavonoid radicals (hyperfine coupling constants, linewidth, center field). As to conditions: pH 11; for G value: flavonoid radical, simulated EPR spectrum.

As for `O=c1cc(-c2ccc(O)c(O)c2)oc2ccc(O)cc12` [6,3′,4′-trihydroxyflavone], the “center field (CF)” value is 328.348 mT, the “linewidth (LW)” value was 0.02 mT and the G value is on record as 2.0002.
The matching figures for `O=c1cc(-c2ccc(O)c(O)c2)oc2cccc(O)c12` [5,3′,4′-trihydroxyflavone]: 328.348 mT, 0.02 mT and 2.0002.

The values are drawn from US20240122894A1, “METHODS TO SYNTHESIZE FLAVONOID DIMERS AND OLIGOMERS AND THE USE THEREOF” (National University of Singapore, priority 2020, published 2024).
